# Measurements reported in paper PMC9262616.
# Sequences of proteins named here, by UniProt entry; tags and fusion partners are left off. A change or cut given only in a name is not applied to a line headed by its entry. A line that says so, or that is headed by a name, gives the form on record, which may keep a tag or linker. Residues count along the entry.
# UniProt Q9UPY3: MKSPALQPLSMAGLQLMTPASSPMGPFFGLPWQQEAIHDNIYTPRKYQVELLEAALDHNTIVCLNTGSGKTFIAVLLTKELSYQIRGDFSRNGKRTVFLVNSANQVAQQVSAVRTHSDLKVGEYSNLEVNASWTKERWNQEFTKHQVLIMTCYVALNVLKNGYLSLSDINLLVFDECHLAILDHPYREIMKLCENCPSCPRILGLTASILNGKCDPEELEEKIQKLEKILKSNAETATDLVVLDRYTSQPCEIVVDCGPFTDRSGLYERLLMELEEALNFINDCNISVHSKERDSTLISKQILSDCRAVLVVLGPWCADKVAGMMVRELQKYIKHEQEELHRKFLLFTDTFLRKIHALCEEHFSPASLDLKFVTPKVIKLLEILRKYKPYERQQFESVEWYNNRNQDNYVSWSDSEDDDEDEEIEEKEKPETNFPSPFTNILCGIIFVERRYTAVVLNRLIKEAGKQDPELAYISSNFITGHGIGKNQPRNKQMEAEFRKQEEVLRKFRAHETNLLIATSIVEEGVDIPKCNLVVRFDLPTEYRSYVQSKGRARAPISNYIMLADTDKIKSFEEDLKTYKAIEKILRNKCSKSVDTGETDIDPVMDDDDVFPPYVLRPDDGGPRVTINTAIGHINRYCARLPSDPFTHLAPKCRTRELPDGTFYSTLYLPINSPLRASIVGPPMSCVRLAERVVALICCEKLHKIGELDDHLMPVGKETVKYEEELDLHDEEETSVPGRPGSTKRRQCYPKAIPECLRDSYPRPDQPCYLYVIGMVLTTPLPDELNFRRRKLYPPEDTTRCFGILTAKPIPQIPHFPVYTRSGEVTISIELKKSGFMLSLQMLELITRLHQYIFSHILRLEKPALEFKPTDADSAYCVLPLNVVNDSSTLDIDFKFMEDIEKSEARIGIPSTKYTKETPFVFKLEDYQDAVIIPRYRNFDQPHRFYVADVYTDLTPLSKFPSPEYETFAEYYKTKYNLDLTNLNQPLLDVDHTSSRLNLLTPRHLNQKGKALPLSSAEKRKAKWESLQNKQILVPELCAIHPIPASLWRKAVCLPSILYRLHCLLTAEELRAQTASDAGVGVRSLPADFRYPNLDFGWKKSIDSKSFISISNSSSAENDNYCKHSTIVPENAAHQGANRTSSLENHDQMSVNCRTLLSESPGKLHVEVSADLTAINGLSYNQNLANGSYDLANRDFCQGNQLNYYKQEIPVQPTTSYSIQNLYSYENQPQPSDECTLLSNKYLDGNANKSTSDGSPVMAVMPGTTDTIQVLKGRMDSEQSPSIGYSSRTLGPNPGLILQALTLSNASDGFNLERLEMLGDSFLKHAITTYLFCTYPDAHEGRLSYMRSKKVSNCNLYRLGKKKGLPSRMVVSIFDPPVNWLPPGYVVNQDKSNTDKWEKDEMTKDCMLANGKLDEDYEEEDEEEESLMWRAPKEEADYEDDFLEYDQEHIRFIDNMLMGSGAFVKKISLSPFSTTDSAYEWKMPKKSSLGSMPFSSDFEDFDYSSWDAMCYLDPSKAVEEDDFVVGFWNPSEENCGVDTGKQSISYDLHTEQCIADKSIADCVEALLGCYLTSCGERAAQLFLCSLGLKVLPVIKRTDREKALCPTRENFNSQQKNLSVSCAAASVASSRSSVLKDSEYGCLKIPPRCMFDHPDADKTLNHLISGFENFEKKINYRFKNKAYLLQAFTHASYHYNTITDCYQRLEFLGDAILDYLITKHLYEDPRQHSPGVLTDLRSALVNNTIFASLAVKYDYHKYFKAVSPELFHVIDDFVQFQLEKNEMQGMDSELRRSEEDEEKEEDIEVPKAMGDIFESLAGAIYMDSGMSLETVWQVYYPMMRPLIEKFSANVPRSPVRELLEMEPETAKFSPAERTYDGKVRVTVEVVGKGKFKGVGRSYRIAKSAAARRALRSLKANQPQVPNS
# UniProt O95433: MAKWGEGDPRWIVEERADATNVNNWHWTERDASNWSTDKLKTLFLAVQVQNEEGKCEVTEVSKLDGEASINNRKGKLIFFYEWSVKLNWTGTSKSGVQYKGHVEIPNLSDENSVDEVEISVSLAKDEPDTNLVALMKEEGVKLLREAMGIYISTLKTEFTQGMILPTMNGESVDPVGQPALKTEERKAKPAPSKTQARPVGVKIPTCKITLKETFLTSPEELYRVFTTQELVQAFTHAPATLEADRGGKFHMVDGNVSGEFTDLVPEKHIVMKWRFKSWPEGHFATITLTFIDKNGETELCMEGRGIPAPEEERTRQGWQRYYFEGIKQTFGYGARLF
# Flag-tagged Aha1-Δ20 (first 20 amino acids deleted): residues 21-338 of O95433
# These are yes or no findings as the source states them, for the method shown. Binding seen in cells or lysates may run through a third protein. Some binding calls cover weakened binding; strength is not graded here.
# What was measured:
# [1] = molecular target: Dicer1, endogenous (human (endogenous in HEK293T)) (UniProt Q9UPY3); experiment: co-IP; endogenous proteins of HEK293T lysate, precleared; reciprocal immunoprecipitation with antibodies to Dicer1 and Aha1 (4 μg), 4°C overnight, Protein A/G agarose; western blot
# [2] = molecular target: Flag-Dicer1 (pCAGGS-Flag-hsDicer1) (human) (UniProt Q9UPY3); experiment: co-IP; maturation-dependent interaction assay: HEK293T cells transfected with Flag-Dicer1 for 24 h, treated with CHX to block de novo protein synthesis, harvested at time points; western blot for Flag, HSP90 and Aha1
# [3] = molecular target: Flag-tagged Aha1-Δ20 (first 20 amino acids deleted) (human) (UniProt O95433); experiment: co-IP; HEK293T cells transfected with Flag-tagged Aha1 plasmids (wild type, E67K, Δ20) for 24 h; anti-Flag M2 beads, 4°C overnight; western blot
# [4] = molecular target: Flag-tagged Aha1-E67K (human) (UniProt O95433); experiment: as above
# [5] = molecular target: Flag-tagged wild-type Aha1 (human) (UniProt O95433); experiment: as above
# [6] = molecular target: Aha1, endogenous (human (endogenous in HEK293T)) (UniProt O95433); experiment: co-IP; endogenous proteins of HEK293T lysate, precleared; reciprocal immunoprecipitation with antibodies to Dicer1 and Aha1 (4 μg), 4°C overnight, Protein A/G agarose; western blot
binding [1],binding [2],binding [3],binding [4],binding [5],binding [6],Substance
binds,binds,,,,,"Aha1, endogenous (from UniProt O95433 1-338)"
,,binds,binds,binds,binds,"Dicer1, endogenous (from UniProt Q9UPY3 1-1922)"
